Paper PMC9825192
These are yes or no findings as the source states them, for the method shown. In cells and extracts the contact can be indirect. A yes stands for co-enrichment or nearness to the bait. Other partners may have been found. Values belong to the molecule of their own block, whether it stands above or below them.

Sequences of proteins named here, by UniProt entry; tags and fusion partners are left off.
UniProt Q9HCK8: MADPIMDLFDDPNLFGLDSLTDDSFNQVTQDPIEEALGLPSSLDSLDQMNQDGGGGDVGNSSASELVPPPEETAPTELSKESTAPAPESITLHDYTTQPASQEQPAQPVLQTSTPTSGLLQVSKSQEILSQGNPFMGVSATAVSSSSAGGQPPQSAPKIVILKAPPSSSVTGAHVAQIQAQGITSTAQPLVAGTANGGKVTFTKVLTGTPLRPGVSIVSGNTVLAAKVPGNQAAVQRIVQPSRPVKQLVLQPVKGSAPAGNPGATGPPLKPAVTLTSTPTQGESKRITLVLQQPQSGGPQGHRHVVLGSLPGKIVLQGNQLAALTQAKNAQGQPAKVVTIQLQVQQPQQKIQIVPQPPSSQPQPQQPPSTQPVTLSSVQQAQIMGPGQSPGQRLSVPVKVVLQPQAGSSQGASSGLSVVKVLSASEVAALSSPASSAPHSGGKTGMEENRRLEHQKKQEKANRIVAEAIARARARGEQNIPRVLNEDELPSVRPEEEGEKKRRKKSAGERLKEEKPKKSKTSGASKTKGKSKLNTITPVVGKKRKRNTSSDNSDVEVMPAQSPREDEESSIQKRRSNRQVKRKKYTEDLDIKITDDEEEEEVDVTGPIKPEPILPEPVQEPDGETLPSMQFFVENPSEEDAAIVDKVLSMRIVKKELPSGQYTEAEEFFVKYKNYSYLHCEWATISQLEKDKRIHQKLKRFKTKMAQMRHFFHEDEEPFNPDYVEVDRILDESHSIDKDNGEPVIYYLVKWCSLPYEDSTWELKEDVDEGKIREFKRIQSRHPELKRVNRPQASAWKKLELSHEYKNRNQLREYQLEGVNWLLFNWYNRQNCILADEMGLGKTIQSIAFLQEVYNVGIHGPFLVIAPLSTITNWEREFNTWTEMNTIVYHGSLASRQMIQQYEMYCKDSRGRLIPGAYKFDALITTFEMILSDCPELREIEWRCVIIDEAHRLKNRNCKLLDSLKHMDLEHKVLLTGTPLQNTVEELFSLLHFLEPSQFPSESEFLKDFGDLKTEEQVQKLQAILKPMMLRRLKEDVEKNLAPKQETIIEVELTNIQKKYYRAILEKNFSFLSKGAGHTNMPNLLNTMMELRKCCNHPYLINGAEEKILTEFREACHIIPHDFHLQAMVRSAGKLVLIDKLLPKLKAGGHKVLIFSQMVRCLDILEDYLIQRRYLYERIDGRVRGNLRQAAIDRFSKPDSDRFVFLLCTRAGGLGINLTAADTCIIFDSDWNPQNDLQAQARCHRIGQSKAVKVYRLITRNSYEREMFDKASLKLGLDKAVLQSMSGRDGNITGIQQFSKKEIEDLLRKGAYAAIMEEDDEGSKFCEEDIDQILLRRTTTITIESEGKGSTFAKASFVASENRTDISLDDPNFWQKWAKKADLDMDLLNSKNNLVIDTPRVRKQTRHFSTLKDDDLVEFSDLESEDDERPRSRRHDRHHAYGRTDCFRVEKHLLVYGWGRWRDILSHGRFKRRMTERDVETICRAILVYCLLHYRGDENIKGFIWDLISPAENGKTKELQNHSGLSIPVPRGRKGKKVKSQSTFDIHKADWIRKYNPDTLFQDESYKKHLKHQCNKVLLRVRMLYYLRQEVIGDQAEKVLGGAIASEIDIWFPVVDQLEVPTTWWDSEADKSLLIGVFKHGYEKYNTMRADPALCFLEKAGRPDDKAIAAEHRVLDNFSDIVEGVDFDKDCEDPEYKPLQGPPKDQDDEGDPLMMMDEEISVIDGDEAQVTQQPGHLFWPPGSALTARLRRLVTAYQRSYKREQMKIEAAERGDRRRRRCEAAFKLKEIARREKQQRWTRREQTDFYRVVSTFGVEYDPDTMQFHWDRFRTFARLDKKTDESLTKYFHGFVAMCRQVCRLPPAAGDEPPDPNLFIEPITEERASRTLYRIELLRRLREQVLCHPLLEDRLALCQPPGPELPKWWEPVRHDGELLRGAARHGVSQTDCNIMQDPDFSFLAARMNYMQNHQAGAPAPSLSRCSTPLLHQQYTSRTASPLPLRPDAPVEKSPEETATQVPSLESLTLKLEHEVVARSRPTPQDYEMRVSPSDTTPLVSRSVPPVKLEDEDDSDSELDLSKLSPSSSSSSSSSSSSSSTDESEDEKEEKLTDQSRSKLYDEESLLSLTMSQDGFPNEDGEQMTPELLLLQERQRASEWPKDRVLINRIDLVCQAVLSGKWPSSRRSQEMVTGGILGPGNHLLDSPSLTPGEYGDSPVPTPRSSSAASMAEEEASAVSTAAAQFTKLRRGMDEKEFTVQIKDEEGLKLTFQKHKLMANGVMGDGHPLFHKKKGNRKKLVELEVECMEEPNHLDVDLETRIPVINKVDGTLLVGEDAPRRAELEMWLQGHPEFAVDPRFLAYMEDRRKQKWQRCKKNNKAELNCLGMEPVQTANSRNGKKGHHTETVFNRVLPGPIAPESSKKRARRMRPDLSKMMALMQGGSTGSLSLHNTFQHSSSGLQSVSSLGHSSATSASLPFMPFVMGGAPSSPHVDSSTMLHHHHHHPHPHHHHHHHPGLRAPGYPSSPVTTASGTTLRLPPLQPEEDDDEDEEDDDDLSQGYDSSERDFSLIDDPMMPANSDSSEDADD
UniProt Q09XV5: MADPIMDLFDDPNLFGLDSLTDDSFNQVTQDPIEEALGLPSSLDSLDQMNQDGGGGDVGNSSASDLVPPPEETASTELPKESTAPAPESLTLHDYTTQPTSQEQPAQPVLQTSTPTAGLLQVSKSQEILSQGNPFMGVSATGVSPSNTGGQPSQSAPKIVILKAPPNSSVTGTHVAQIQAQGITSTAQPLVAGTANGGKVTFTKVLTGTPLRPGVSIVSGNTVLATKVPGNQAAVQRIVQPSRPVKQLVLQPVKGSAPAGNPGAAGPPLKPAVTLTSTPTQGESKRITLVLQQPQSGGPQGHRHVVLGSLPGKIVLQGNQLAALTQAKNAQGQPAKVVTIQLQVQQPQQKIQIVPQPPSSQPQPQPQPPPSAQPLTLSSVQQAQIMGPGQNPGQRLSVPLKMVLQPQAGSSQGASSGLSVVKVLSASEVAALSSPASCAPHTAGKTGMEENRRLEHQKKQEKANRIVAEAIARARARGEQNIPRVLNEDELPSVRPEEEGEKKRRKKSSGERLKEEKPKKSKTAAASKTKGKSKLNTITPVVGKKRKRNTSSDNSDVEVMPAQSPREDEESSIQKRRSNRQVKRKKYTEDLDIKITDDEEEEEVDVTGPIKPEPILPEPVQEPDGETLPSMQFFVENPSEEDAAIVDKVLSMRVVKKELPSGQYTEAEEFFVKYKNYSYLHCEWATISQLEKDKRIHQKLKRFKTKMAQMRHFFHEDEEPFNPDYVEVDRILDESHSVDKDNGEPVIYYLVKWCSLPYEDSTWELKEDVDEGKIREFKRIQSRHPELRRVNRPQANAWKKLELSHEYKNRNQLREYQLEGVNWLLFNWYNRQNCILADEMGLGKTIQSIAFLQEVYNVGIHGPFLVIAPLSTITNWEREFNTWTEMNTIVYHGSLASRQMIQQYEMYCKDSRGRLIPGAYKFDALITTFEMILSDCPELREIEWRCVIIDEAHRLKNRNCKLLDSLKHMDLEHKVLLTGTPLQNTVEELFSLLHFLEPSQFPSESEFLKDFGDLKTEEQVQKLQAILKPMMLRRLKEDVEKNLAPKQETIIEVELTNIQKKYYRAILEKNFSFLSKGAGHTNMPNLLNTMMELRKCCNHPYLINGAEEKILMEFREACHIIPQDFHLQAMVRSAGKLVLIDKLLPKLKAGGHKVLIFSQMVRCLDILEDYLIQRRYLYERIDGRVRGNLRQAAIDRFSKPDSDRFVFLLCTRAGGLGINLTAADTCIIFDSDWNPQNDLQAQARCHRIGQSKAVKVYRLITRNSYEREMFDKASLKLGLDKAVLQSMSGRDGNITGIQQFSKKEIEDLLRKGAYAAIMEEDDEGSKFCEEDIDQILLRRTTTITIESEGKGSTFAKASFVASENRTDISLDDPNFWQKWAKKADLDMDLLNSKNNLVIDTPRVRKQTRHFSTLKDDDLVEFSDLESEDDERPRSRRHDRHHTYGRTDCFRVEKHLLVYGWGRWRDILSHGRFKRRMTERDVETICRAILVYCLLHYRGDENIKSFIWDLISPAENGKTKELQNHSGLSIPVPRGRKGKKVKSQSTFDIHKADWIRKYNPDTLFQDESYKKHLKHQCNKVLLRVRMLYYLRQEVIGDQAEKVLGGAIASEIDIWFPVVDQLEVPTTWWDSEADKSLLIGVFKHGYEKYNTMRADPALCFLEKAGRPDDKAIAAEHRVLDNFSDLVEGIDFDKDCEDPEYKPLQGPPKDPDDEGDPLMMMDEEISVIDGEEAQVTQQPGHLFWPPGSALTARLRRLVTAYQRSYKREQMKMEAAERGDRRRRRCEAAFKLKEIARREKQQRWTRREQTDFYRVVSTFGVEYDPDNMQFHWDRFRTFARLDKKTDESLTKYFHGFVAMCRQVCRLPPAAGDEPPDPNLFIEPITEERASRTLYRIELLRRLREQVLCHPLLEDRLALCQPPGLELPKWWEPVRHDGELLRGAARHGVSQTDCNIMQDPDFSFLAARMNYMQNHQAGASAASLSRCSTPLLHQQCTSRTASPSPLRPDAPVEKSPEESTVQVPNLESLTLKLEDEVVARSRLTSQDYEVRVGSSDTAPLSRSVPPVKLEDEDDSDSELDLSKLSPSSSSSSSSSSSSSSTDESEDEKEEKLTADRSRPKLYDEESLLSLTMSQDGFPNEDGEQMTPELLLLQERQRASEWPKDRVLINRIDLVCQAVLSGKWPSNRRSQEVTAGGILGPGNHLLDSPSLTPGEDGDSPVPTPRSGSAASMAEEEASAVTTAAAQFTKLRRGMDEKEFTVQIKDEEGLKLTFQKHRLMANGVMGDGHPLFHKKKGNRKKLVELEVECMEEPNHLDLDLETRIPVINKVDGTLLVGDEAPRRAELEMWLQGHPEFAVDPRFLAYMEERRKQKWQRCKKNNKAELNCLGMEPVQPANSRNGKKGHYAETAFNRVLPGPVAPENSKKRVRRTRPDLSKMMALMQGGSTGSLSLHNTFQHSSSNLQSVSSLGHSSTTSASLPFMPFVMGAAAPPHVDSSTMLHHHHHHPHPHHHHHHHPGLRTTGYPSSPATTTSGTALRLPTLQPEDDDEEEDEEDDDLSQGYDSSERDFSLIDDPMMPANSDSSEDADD

Legend:
[1] = target: chromodomain helicase DNA-binding protein 8 (human (endogenous in iPSC-derived NPCs)) (UniProt Q9HCK8); test: affinity purification with mass spectrometry; endogenous CHD8 immunoprecipitated from the hNPC nuclear fraction with two antibodies (#17 N-terminal, #18 C-terminal), rabbit IgG as control; LC-MS/MS; three biological replicates
[2] = target: Chd8 (mouse) (mouse (endogenous in mESCs)) (UniProt Q09XV5); test: affinity purification with mass spectrometry; independent Chd8 MS analysis on mouse embryonic stem cells; no further details told

binding [1]: binds
Molecule: CHD7 (from UniProt Q9P2D1 1-2997)

binding [2]: binds
B1: hnRNPL (mouse) (protein, UniProt Q8R081 1-586)
chain: MSRRLLPRAEKRRRRLEQRQQPDEQLRRAGAMVKMAAAGGGGGGGRYYGGGNEGGRAPKRLKTENAGDQHGGGGGGGSGAAGGGGGENYDDPHKTPASPVVHIRGLIDGVVEADLVEALQEFGPISYVVVMPKKRQALVEFEDVLGACNAVNYAADNQIYIAGHPAFVNYSTSQKISRPGDSDDSRSVNSVLLFTILNPIYSITTDVLYTICNPCGPVQRIVIFRKNGVQAMVEFDSVQSAQRAKASLNGADIYSGCCTLKIEYAKPTRLNVFKNDQDTWDYTNPNLSGQGDPGSNPNKRQRQPPLLGDHPAEYGGPHGGYHSHYHDEGYGPPPPHYEGRRMGPPVGGHRRGPSRYGPQYGHPPPPPPPPDYGPHADSPVLMVYGLDQSKMNCDRVFNVFCLYGNVEKVKFMKSKPGAAMVEMADGYAVDRAITHLNNNFMFGQKMNVCVSKQPAIMPGQSYGLEDGSCSYKDFSESRNNRFSTPEQAAKNRIQHPSNVLHFFNAPLEVTEENFFEICDELGVKRPTSVKVFSGKSERSSSGLLEWDSKSDALETLGFLNHYQMKNPNGPYPYTLKLCFSTAQHAS

binding [1]: binds
B2: heterogeneous nuclear ribonucleoprotein L (protein, UniProt P14866 1-589)
chain: MSRRLLPRAEKRRRRLEQRQQPDEQRRRSGAMVKMAAAGGGGGGGRYYGGGSEGGRAPKRLKTDNAGDQHGGGGGGGGGAGAAGGGGGGENYDDPHKTPASPVVHIRGLIDGVVEADLVEALQEFGPISYVVVMPKKRQALVEFEDVLGACNAVNYAADNQIYIAGHPAFVNYSTSQKISRPGDSDDSRSVNSVLLFTILNPIYSITTDVLYTICNPCGPVQRIVIFRKNGVQAMVEFDSVQSAQRAKASLNGADIYSGCCTLKIEYAKPTRLNVFKNDQDTWDYTNPNLSGQGDPGSNPNKRQRQPPLLGDHPAEYGGPHGGYHSHYHDEGYGPPPPHYEGRRMGPPVGGHRRGPSRYGPQYGHPPPPPPPPEYGPHADSPVLMVYGLDQSKMNCDRVFNVFCLYGNVEKVKFMKSKPGAAMVEMADGYAVDRAITHLNNNFMFGQKLNVCVSKQPAIMPGQSYGLEDGSCSYKDFSESRNNRFSTPEQAAKNRIQHPSNVLHFFNAPLEVTEENFFEICDELGVKRPSSVKVFSGKSERSSSGLLEWESKSDALETLGFLNHYQMKNPNGPYPYTLKLCFSTAQHAS
